Record: PubChem BioAssay AID1224828 (NIAID, 2016)

- Assay: 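Find genes required for NF-kappaB p65 moving into the nucleus after LPS in mouse macrophages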 (primary screen)
- Cell system: mouse RAW264.7 G9 macrophage reporter cells (GFP-p65, Tnf promoter-mCherry)
- Reagents: siRNA pool against mouse genes, 100 nM
- Duration: 2 days siRNA transfection, then 40 min LPS before fixation
- Challenge: LPS (Salmonella minnesota R595) at 10 ng/ml
- Measured: 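Imaged p65 nuclear translocation ratio, normalised to the plate median, converted to robust z-scores and averaged across two replicates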
- Direction: p65 translocation robust z-score: higher = more nuclear NF-kappaB p65 after LPS than the plate median; nuclear/cytoplasmic p65 ratio: higher = more nuclear NF-kappaB p65
- Rule for the call: 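Called active when z exceeds 3.3 or falls under -1.56 (median of Tlr4 controls), giving activity score of at least 50; no calls for control wells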
- Meaning of the calls: active = hit (p65 shift raised or lowered); inactive = no clear change
The deposit covers about 17,000 reagents; shown is a random part of them. 762 of all reagents (4.5%) were called active. 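Active calls include both raised and lowered p65 entry, mostly lowered; wells with fewer than 50 cells lack a z-score.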 The raw values are shown without normalisation.

With knock-down of Ccl5 the results were p65 translocation robust z-score -0.36; nuclear/cytoplasmic p65 ratio, rep 1 = 1.47; nuclear/cytoplasmic p65 ratio, rep 2 = 1.33; low cell count flag enough cells to score; inactive. Knock-down of Map7 resulted in: p65 translocation robust z-score 0.55; nuclear/cytoplasmic p65 ratio, rep 1 = 1.53; nuclear/cytoplasmic p65 ratio, rep 2 = 1.39; low cell count flag enough cells to score; inactive. After knock-down of Or5an1c the results were nuclear/cytoplasmic p65 ratio, rep 1 = 1.5; nuclear/cytoplasmic p65 ratio, rep 2 = 1.3; low cell count flag fewer than 50 cells per well; well left out of scoring; inactive. Gstm6 scored p65 translocation robust z-score 0.48; nuclear/cytoplasmic p65 ratio, rep 1 = 1.73; nuclear/cytoplasmic p65 ratio, rep 2 = 1.6; low cell count flag enough cells to score; inactive.

In a second layout: 2 of the entries above.
gene knocked down	p65 translocation robust z-score	nuclear/cytoplasmic p65 ratio, rep 1	nuclear/cytoplasmic p65 ratio, rep 2	low cell count flag	Call
Or5an1c		1.5	1.3	fewer than 50 cells per well; well left out of scoring	inactive
Gstm6	0.48	1.73	1.6	enough cells to score	inactive

More reagents follow.
For Col16a1, the values are p65 translocation robust z-score 0.9; nuclear/cytoplasmic p65 ratio, rep 1 = 1.62; nuclear/cytoplasmic p65 ratio, rep 2 = 1.47; low cell count flag enough cells to score; inactive. Ubox5 showed p65 translocation robust z-score 0.38; nuclear/cytoplasmic p65 ratio, rep 1 = 1.7; nuclear/cytoplasmic p65 ratio, rep 2 = 1.65; low cell count flag enough cells to score; inactive. Dppa1 showed nuclear/cytoplasmic p65 ratio, rep 1 = 1.74; nuclear/cytoplasmic p65 ratio, rep 2 = 1.34; low cell count flag fewer than 50 cells per well; well left out of scoring; inactive. With knock-down of Retnla, the screen gave p65 translocation robust z-score -0.26; nuclear/cytoplasmic p65 ratio, rep 1 = 1.38; nuclear/cytoplasmic p65 ratio, rep 2 = 1.19; low cell count flag enough cells to score; inactive. Or6ae1 scored nuclear/cytoplasmic p65 ratio, rep 1 = 1.39; nuclear/cytoplasmic p65 ratio, rep 2 = 1.22; low cell count flag fewer than 50 cells per well; well left out of scoring; inactive. Cidea scored p65 translocation robust z-score 0.05; nuclear/cytoplasmic p65 ratio, rep 1 = 1.49; nuclear/cytoplasmic p65 ratio, rep 2 = 1.38; low cell count flag enough cells to score; inactive.

Supt3 showed p65 translocation robust z-score 1.25; nuclear/cytoplasmic p65 ratio, rep 1 = 1.65; nuclear/cytoplasmic p65 ratio, rep 2 = 1.82; low cell count flag enough cells to score; inactive. Depletion of Hdac7 resulted in: p65 translocation robust z-score -1.68; nuclear/cytoplasmic p65 ratio, rep 1 = 1.19; nuclear/cytoplasmic p65 ratio, rep 2 = 1.18; low cell count flag enough cells to score; active.
